Molecular target: T7 RNA polymerase P314T (starting PACE enzyme) (bacteriophage T7) (UniProt P00573)
Assay: activity in cells
Details: protein in cells, only the site is given

“AATTAACCCTCACTAAA (double strand) [T3 promoter]” was tested, and the activity on this sequence (lacZ reporter, undetectable, relative to starting RNAP on T7 promoter) was under 3%.

“TAATACGACTCACTATAAAAAAA (double strand) [T7 promoter iA6 (A at +1 to +6)]” showed an activity on this sequence (undetectable initial activity of starting RNAP, variant of T7 promoter) of under 3%.

Reference: patent publication US20220195418
